Assay results: PubChem BioAssay AID493014 (National Center for Advancing Translational Sciences (NCATS), 2011)
The campaign covered roughly 340,000 compounds. About 170 (0.05%) were called active. Inconclusive results, whose numbers are uncertain, are shown with a selection of clear calls. Calls come from the whole dose curve; as a rule, active = well fitted inhibition curve with a large enough effect in the signal ratio, with a control signal flat (not every such curve was filed as active); inconclusive = small, poorly fitted or top-dose-only effect, or effect the other way, or a change in a side signal; inactive = flat fitted curve, though single readings scatter; the % refers to the signal ratio. A potency beside an inconclusive call is a rough fit, not a confirmed value.

experiment: qHTS Assay to Find Inhibitors of Chronic Active B-Cell Receptor Signaling; settings: ABC-DLBCL IkBa-CBG/CBR reporter, luminescence ratio (green luciferase fused to IkBa over red control in TMD8 lymphoma cells), 4 h; activity change, negative = inhibition: at 46.1 µM (top of the series) unless noted;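 for activity change, negative = inhibition: plate controls were basal doxycycline-induced cells for no effect and cells given 10 µM MG132 for full effect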
In short: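 Doxycycline induced both beetle luciferases in TMD8 lymphoma cells; IKK-driven degradation limits the IkappaBalpha-fused green signal, while red luminescence normalises for cell number and nonspecific effects. Compounds tested up to 46 uM, 4 hrs.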
Potency is the fitted concentration of half-maximal effect.

Q: For `Cc1ccc(C(=O)CC(=O)c2ccc(C)cc2O)cc1`, which activity change, negative = inhibition is on record?
A: inconclusive: 5.7%

Q: With `Cc1ccc(NC(=O)Cn2c(C)cc(C)c(C#N)c2=O)c(Cl)c1` as the compound, how does the “activity change, negative = inhibition” value read?
A: inactive: -0.843%

Q: With `COc1cc(N/C=C(\C(C)=O)c2ccccc2)cc(OC)c1` as the compound, how does the activity change, negative = inhibition read?
A: inconclusive: 3.4%

Q: With `Cc1cc(NS(C)(=O)=O)c(=O)n(Cc2c(F)cccc2Cl)c1` as the compound, how does the activity change, negative = inhibition read?
A: inconclusive: 9.32%

Q: For `COc1ccc(C(=O)Nc2cccnc2)cc1OC`, which Potency is on record?
A: inconclusive: 29.1 µM [falling, partial curve, poor fit]

Q: Which “activity change, negative = inhibition” value does the source give for `Nc1ncnc2c1ncn2[C@@H]1O[C@H](CNC(=O)[C@H]2CCC(=O)N2)[C@@H](O)[C@H]1O` here?
A: inactive: 2.53%

Q: With `O=C(CCCN1C(=O)/C(=C/c2ccccc2)SC1=S)Nc1ccc(O)cc1` as the compound, how does the Potency read?
A: inconclusive: 20 µM [falling, partial curve]

Q: With `Cc1ccc(NC(=O)c2ccc(-c3nn(C)c(=O)c4ccccc34)cc2)c(C)c1` as the compound, how does the activity change, negative = inhibition read?
A: inconclusive: -20.1%

Q: With `Nc1cc2nsnc2cc1Br` as the compound, how does the Potency read?
A: inconclusive: 10 µM [falling, partial curve, poor fit]

Q: Which activity change, negative = inhibition does the source give for `Brc1ccc(-c2nnc(-c3ccc4c(c3)OCO4)o2)o1` here?
A: inconclusive: 7.17%

Q: Which Potency does the source give for `COc1ccc(-c2nc(CN3CCC(C(=O)N4CCOCC4)CC3)c(C)o2)cc1C` here?
A: inconclusive: 1.78 µM [rising, partial curve]

Q: With `CCN(CC)CCNC(=O)c1cn(CC)c2cc(N3CCN(C)CC3)c(F)cc2c1=O` as the compound, how does the activity change, negative = inhibition read?
A: inconclusive: -4.33%

Q: For `COc1ccc(NS(=O)(=O)c2cc(Br)cc3c2N(C(=O)C2CC2)CC3)cc1OC`, which Potency is on record?
A: inconclusive: 35.5 µM [falling, single point]

Q: For `O=C(Cc1ccc(Br)cc1)Nc1cccc(S(=O)(=O)N2CCOCC2)c1`, which activity change, negative = inhibition is on record?
A: inconclusive: -5.94%

Q: Which activity change, negative = inhibition does the source give for `COc1ccccc1OCCCn1cc(C#N)c2ccccc21` here?
A: inconclusive: 1.14%

Q: With `COc1ccc(-c2cc(=O)[nH]c(NCc3ccccc3)n2)cc1` as the compound, how does the activity change, negative = inhibition read?
A: inconclusive: -15.3%

Q: For `CCOc1cc(-c2noc(N)c2C#N)cc(OCC)c1OCC`, which Potency is on record?
A: inconclusive: 35.5 µM [falling, partial curve, poor fit]

Q: For `O=C(COc1ccccc1Cl)Nc1ccc(Cl)cn1`, which activity change, negative = inhibition is on record?
A: inconclusive: 2.57%

Q: For `COc1ccc(-c2c(-c3cc(OC)c(OC)c(OC)c3)noc2C)cn1`, which Potency is on record?
A: inconclusive: 1.58 µM [falling, full curve]

Q: For `Cc1ccc(N2C(=O)N(CC(=O)Nc3c(C)cc(C)cc3Cl)C(=O)C2C)cc1` (stereo not given), which activity change, negative = inhibition is on record?
A: inconclusive: 15.3%

Q: Which Potency does the source give for `O=C(c1cc(-c2ccc(Cl)cc2)on1)N1CCN(c2ccccc2)CC1` here?
A: inconclusive: 14.1 µM [falling, partial curve]

Q: For `N#Cc1ccccc1NC(=O)CNc1ccccc1N1CCCCC1`, which Potency is on record?
A: inconclusive: 23.1 µM [falling, partial curve]

Q: For `C=CCc1c(C)nc(SCCC)[nH]c1=O`, which activity change, negative = inhibition is on record?
A: inconclusive: -0.825%

Q: Which activity change, negative = inhibition does the source give for `Cn1c2ccccc2c2c(C(=O)N3CCN(c4ccccn4)CC3)cn(C3CCCC3)c(=O)c21` here?
A: inconclusive: -11.7%

Q: With `COc1ccc(-c2cc(C(F)(F)F)nc(S(C)(=O)=O)n2)cc1` as the compound, how does the Potency read?
A: inconclusive: 13 µM [rising, partial curve, poor fit]

Q: With `O=C(Nc1ccc(Cl)cn1)c1ccc([N+](=O)[O-])o1` as the compound, how does the “activity change, negative = inhibition” value read?
A: inactive: -16.9%

Q: For `CCOC(=O)c1sc2ccccc2c1S(=O)(=O)Nc1ccc(CC)cc1`, which “activity change, negative = inhibition” value is on record?
A: inactive: 7.25%

Q: With `OCCNc1nc(-c2cccnc2)nc2ccccc12` as the compound, how does the activity change, negative = inhibition read?
A: inconclusive: -0.146%

Q: Which activity change, negative = inhibition does the source give for `O=C(O)/C=C/C(=O)c1c(-c2ccccc2)[nH]c2ccccc12` here?
A: inconclusive: 5.73%

Q: For `CCOc1ccc(N2CC(NC(=O)/C=C\c3ccc4c(c3)OCO4)CC2=O)cc1` (stereo not given), which “activity change, negative = inhibition” value is on record?
A: inactive: -10.3%

Q: With `O=C(CNC(=O)c1ccccc1F)NC1CCN(Cc2ccccc2)CC1` as the compound, how does the activity change, negative = inhibition read?
A: inconclusive: 1.78%

Q: With `COc1cc(/C=N/NC(=O)c2cccc([N+](=O)[O-])c2)ccc1OCc1ccccc1` as the compound, how does the “activity change, negative = inhibition” value read?
A: inactive: -5.23%

Q: Which activity change, negative = inhibition does the source give for `O=C(CCSCc1ccccc1Cl)NC1CCCC1` here?
A: inconclusive: 7.29%

Q: With `O=C(Cn1nnc(-c2cc(Cl)ccc2-n2cnnn2)n1)N1CCCc2ccccc21` as the compound, how does the “activity change, negative = inhibition” value read?
A: inactive: 2.74%

Q: For `CC1SCC(=O)N(CC(=O)NCCc2ccccc2)C1=O` (stereo not given), which activity change, negative = inhibition is on record?
A: inconclusive: -0.0651%

Q: For `C(=N\Nc1nc2ccccc2[nH]1)/C1CCCCC1`, which Potency is on record?
A: inconclusive: 35.5 µM [falling, single point]

Q: Which “activity change, negative = inhibition” value does the source give for `O=C(Nc1ccc(F)c(F)c1)c1cc(S(=O)(=O)NC2CCCCCC2)ccc1F` here?
A: inactive: 20.4%

Q: Which activity change, negative = inhibition does the source give for `CC1CCCN(CCCNC(=O)c2cc3c(s2)-c2ccccc2OC3)C1` (stereo not given) here?
A: inconclusive: -1.61%

Q: For `Cc1c(NC(=O)c2cc(-c3ccc(F)cc3)on2)c(=O)n(-c2ccccc2)n1C`, which Potency is on record?
A: inconclusive: 14.1 µM [falling, single point]

Q: For `CC(C)=CCC[C@](C)(O)C1CC[C@]2(C)C1[C@H](O)CC1[C@@]3(C)CC[C@H](O[C@@H]4O[C@H](CO)[C@@H](O)[C@H](O)[C@H]4O[C@@H]4O[C@H](CO)[C@@H](O)[C@H](O)[C@H]4O)C(C)(C)C3CC[C@]12C` (stereo not given in full), which activity change, negative = inhibition is on record?
A: inconclusive: 6.99%
